According to patent US9566312B2, “Cyclic peptides and use as medicines” (priority 2012, dated 2017):
Part of at least one peptide drawing is inferred or uncertain, most often the ends. Starred links: 1 amine or outer side, 2 acyl side, 3 side chain; linkers in the order of their positions; H or OH if unused. Non-standard residues stand in square brackets, D forms with d. Residues, ends and D or L forms follow the SMILES beside them. X52 = C[C@H](CCC(=O)N1CCOCC1)[C@@H](C(=O)[*:2])N(C)[*:1]; MeBmt = C/C=C/C[C@@H](C)[C@@H](O)[C@H](NC)C(=O)O; NMeL = CN[C@@H](CC(C)C)C(=O)O; NMeV = CN[C@H](C(=O)O)C(C)C; dNMeA = CN[C@H](C)C(=O)O; Abu = CC[C@H](N)C(=O)O

System: genotype 1b subgenomic HCV replicon in Huh7.5 cells
Format: cell-based, hepatitis C virus
Conditions: genotype 1b replicon, 72 h incubation; read-out: RPLN-1b IC50
Experimental: Method 2: Measuring Inhibitory Effects in a HCV Replicon System
Susceptibility to compounds was analyzed in Huh7.5 cells containing genotype 1a or 1b subgenomic HCV replicons co-expressing a luciferase reporter gene. The original replicons, pFK389lucubineo_3_3′_ET and pH/SG-Neo(L+I), were licensed from ReBlicon GmbH (Germany) and Apath LLC (Saint Louis, Mo.), respectively. The firefly reporter gen was replaced by renilla luciferase reporter gene using standard molecular biology techniques as follows.
Generation of genotype 1b subgenomic replicon: The renilla […]-neomycin phosphotransferase cassette was amplified from pF9 cytomegalovirus (CMV) hRluc-Neo Flexi(R) (Promega) by PCR using Accuprime super mix II (Invitrogen) and a primer set of Ascl hRlucNeo Fwd and NotI hRluc Rev. These two primers have the following sequences and introduce restriction sites for subsequent cloning: Ascl hRlucNeo Fwd, 5 […] 3(Ascl site underlined) (SEQ. ID No. 1), and NotI hRluc Rev, 5[…] 3(NotI site underlined) (SEQ ID No. 2). […]
The assay medium for both, luciferase reporter HCV replicon and cytotoxicity assays contains phenol red-free DMEM and lacks G418. […] Luciferase activity of compound treated cells is measured relative to DMSO treated cells after 72 h incubation using Renilla-Glo™ Luciferase Assay (Promega). Cytotoxicity (CC50) is analyzed using Cell Titer-Glo™ (Promega).

SMILES	IC50
C/C=C/C[C@@H](C)[C@@H](O)[C@H]1C(=O)N[C@@H](CC)C(=O)N(C)[C@H](C)C(=O)N(C)[C@@H]([C@H](C)CCC(=O)N2CCOCC2)C(=O)N[C@@H](C(C)C)C(=O)N(C)[C@@H](CC(C)C)C(=O)N[C@@H](C)C(=O)N[C@H](C)C(=O)N(C)[C@@H](CC(C)C)C(=O)N(C)[C@@H](CC(C)C)C(=O)N(C)[C@@H](C(C)C)C(=O)N1C [Compound 2.14.4, 3-[D-Ala]-4-[(2S,3R)-3-methyl-2-(methylamino)-6-morpholino-6-oxohexanoyl]-cyclosporin] (cyclo(A[dA][NMeL][NMeL][NMeV][MeBmt][Abu][dNMeA][X52]V[NMeL]))	100 nM
C/C=C/C[C@@H](C)[C@@H](O)[C@H]1C(=O)N[C@@H](CC)C(=O)N(C)[C@H](CC)C(=O)N(C)[C@@H]([C@H](C)COC)C(=O)N[C@@H](C(C)C)C(=O)N(C)[C@@H](CC(C)C)C(=O)N[C@@H](C)C(=O)N[C@H](C)C(=O)N(C)[C@@H](CC(C)C)C(=O)N(C)[C@@H](CC(C)C)C(=O)N(C)[C@@H](C(C)C)C(=O)N1C [Compound 3.1, 3-[(R)-2-(methylamino)butanoic acid]-4-[(2S,3S)-4-methoxy-3-methyl-2-(methylamino)butanoyl]-cyclosporin]	40 nM
